Measurements taken from publication doi:10.1101/717041.
These are yes or no findings as the source states them, for the method shown. In cells and extracts the contact can be indirect. Some results given as binding are weak or reduced against the parent protein; the word gives no strength. For some of these results: Tags and fused reporters may be left off the sequences shown.

The chains behind the UniProt entries cited, without tags or fusion partners.
UniProt Q8TEW0: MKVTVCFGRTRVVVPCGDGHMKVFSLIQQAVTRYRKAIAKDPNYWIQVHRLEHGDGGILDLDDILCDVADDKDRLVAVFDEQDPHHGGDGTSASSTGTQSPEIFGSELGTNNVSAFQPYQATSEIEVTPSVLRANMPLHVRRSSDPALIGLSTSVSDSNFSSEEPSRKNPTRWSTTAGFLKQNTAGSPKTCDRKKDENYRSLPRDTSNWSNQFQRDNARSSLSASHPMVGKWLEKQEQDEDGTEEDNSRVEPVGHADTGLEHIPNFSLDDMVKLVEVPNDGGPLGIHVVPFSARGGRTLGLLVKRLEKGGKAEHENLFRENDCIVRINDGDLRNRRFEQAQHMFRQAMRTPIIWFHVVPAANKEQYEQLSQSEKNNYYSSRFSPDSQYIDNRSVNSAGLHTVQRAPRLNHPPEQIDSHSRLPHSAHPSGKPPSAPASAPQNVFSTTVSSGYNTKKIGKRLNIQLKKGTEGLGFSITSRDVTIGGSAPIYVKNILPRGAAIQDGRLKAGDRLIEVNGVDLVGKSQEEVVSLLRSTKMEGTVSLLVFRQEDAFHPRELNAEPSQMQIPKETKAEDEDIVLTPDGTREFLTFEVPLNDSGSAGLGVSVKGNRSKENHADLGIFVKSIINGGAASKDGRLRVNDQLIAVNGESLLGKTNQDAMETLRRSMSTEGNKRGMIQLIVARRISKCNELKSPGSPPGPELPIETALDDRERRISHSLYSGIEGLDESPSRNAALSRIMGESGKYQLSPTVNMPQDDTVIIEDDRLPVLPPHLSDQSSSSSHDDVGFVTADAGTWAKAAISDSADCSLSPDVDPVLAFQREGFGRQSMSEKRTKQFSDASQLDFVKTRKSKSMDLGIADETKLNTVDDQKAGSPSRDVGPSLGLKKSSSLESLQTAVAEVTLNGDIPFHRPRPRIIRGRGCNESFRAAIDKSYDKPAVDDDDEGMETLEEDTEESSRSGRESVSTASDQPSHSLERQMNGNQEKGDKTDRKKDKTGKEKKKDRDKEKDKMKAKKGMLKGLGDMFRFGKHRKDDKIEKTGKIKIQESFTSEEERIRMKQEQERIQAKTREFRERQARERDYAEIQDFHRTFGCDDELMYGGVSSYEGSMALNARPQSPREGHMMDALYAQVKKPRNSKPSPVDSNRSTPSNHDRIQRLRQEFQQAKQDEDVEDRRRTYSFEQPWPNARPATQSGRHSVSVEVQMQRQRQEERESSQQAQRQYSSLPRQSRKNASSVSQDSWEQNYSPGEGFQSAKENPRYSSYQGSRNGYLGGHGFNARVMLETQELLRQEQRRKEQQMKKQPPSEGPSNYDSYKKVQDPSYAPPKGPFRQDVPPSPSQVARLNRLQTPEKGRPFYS

What was measured:
FLAG-PARD3-full length = FLAG-PARD3-full length (UniProt Q8TEW0); assay: co-IP
[1] = molecular target: T1, GST-tagged Daple-PBM (aa 2008-2028) (UniProt Q9P219); assay: pull-down
T1 sequence: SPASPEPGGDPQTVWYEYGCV

GST-Daple-PBM E2024A = molecular target: T2, GST-Daple-PBM E2024A (UniProt Q9P219); assay: pull-down
T2 sequence: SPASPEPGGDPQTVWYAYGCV

[2] = molecular target: T3, GST-tagged Daple-PBM (aa 2008-2028) Y2025E (UniProt Q9P219); assay: pull-down
T3 sequence: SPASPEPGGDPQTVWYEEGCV

GST-Daple-PBM E2024K = molecular target: T4, GST-Daple-PBM E2024K (UniProt Q9P219); assay: pull-down
T4 sequence: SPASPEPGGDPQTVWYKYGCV

[3] = molecular target: T5, GST-tagged Daple-PBM (aa 2008-2028) Y2023/2025E (UniProt Q9P219); assay: pull-down
T5 sequence: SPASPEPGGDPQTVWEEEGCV

[4] = molecular target: T6, GST-tagged Daple-PBM (aa 2008-2028) Y2023E (UniProt Q9P219); assay: pull-down
T6 sequence: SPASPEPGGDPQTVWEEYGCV

GST-Daple-CT = molecular target: T7, GST-Daple-CT (UniProt Q9P219); assay: pull-down
T7 sequence: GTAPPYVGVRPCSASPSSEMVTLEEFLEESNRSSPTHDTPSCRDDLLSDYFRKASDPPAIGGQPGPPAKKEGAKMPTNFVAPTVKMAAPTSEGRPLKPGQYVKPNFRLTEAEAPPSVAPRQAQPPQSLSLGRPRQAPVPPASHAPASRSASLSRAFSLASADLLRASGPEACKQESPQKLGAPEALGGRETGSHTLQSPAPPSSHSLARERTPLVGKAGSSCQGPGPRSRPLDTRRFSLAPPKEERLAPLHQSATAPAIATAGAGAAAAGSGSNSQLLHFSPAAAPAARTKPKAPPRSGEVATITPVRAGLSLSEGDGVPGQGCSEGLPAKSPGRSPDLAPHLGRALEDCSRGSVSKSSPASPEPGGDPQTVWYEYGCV

full length Daple-WT (myc-Daple) (from UniProt Q9P219 1-2028)
binding (FLAG-PARD3-full length): binds

FLAG-PARD3-full length (from UniProt Q8TEW0 1-1356)
binding [1]: binds | binding (GST-Daple-PBM E2024A): no binding | binding [2]: binds | binding (GST-Daple-PBM E2024K): no binding | binding [3]: no binding | binding [4]: binds | binding (GST-Daple-CT): binds

Daple-Y2023/2025E (from UniProt Q9P219 1-2028)
binding (FLAG-PARD3-full length): no binding

Daple-FA (F1675A) (from UniProt Q9P219 1-2028)
binding (FLAG-PARD3-full length): binds
